Results are given in words; binding and its absence hold for the method and conditions named. Binding seen in cells or lysates may run through a third protein. Binding can be weak; no strength is given.
Target: T1, HP1c (Drosophila (endogenous in embryos)) (UniProt Q9VCU6)
T1 sequence: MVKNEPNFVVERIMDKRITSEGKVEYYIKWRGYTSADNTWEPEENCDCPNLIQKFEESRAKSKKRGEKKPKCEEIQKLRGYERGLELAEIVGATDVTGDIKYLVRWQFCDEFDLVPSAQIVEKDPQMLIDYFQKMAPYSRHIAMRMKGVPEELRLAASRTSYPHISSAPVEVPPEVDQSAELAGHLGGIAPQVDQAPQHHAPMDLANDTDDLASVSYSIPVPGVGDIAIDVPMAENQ
Experiment: co-IP; 30 µl nuclear extract of early Drosophila embryos (0–12 h, TRAX) with α-HP1c (2G2), α-Woc or buffer overnight at 4°C in BC200; protein A/G sepharose; washed with BC300; western blotting

binding: binds
Substance: Woc (Drosophila (endogenous in embryos))
